From PMC2886121 come the findings set out here.

The chains behind the UniProt entries cited, without tags or fusion partners. Where a name states a change or a piece, a line headed by the entry shows the natural chain unless it says otherwise.
UniProt P25116: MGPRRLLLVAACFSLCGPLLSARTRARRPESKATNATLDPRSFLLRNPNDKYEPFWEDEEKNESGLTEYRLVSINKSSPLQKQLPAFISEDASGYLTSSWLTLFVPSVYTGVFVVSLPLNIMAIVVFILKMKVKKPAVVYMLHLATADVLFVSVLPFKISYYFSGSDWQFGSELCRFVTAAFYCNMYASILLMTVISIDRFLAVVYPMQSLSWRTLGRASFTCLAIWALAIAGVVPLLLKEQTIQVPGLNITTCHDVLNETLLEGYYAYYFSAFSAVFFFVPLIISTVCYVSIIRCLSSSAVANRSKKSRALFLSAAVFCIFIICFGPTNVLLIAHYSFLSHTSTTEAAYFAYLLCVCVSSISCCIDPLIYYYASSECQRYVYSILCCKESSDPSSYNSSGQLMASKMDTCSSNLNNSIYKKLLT

One test deals with T1, GST-PH-Etk/Bmx (UniProt P51813).
T1 sequence: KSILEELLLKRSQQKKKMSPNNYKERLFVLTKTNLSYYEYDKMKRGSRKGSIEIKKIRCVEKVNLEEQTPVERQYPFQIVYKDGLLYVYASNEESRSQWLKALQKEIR
As to the kind of experiment: pull-down; purified PAR1 C-tail fragments (cleaved from GST by thrombin) applied to GST-PH-Etk/Bmx column or GST beads; incubation 4 h; blot with anti-PAR1 (ATAP); both purified.

Test [1] concerns the target GST-PAR1 C-tail Y383A (human) (UniProt P25116). The test is described as follows: pull-down; GST-PAR1-C-tail columns (wt, Y381A, Y383A) or GST control; lysates of HEK293 cells transfected with Etk/Bmx or kinase-inactive Etk/Bmx (KQ) applied; blot with anti-Etk/Bmx; only the target purified.
Test [2] deals with GST-PAR1 C-tail Y381A (human) (UniProt P25116). The test is described as above.

These are yes or no findings as the source states them, for the method shown. A result given as binding can be weak or reduced; the word gives no strength. For part of these data: Sequences can lack the tags named with a protein. For part of these data: In cells and extracts the contact can be indirect.

Turning to “purified PAR1 C-tail Y381A, cleaved from GST-C-tail (from UniProt P25116) (domain or fragment)”, the binding entry with GST-PH-Etk/Bmx was “binds”.

B1: Etk/Bmx (wt), transfected in HEK293 cells (enzyme, UniProt P51813 1-675)
chain: MDTKSILEELLLKRSQQKKKMSPNNYKERLFVLTKTNLSYYEYDKMKRGSRKGSIEIKKIRCVEKVNLEEQTPVERQYPFQIVYKDGLLYVYASNEESRSQWLKALQKEIRGNPHLLVKYHSGFFVDGKFLCCQQSCKAAPGCTLWEAYANLHTAVNEEKHRVPTFPDRVLKIPRAVPVLKMDAPSSSTTLAQYDNESKKNYGSQPPSSSTSLAQYDSNSKKIYGSQPNFNMQYIPREDFPDWWQVRKLKSSSSSEDVASSNQKERNVNHTTSKISWEFPESSSSEEEENLDDYDWFAGNISRSQSEQLLRQKGKEGAFMVRNSSQVGMYTVSLFSKAVNDKKGTVKHYHVHTNAENKLYLAENYCFDSIPKLIHYHQHNSAGMITRLRHPVSTKANKVPDSVSLGNGIWELKREEITLLKELGSGQFGVVQLGKWKGQYDVAVKMIKEGSMSEDEFFQEAQTMMKLSHPKLVKFYGVCSKEYPIYIVTEYISNGCLLNYLRSHGKGLEPSQLLEMCYDVCEGMAFLESHQFIHRDLAARNCLVDRDLCVKVSDFGMTRYVLDDQYVSSVGTKFPVKWSAPEVFHYFKYSSKSDVWAFGILMWEVFSLGKQPYDLYDNSQVVLKVSQGHRLYRPHLASDTIYQIMYSCWHELPEKRPTFQQLLSSIEPLREKDKH
B1: the binding result in test [1] and in test [2] was “binds” throughout.
